Counter-ions that a name gives are not always drawn. The list shows a part of the results. Repeats are few or missing, and single values can be far off.
Tested on: Drosophila melanogaster DPAGT1 (Alg7) RNAi eye model
Assay: eye size Z-score vs DMSO-treated DPAGT1 model flies; higher = larger eye (suppression of DPAGT1 phenotype)
Conditions: 5 uM

Row | SMILES | eye size Z-score | eye size Z-score (female)
1 | O=C(CCCCCCC(=O)Nc1ccccc1)NO [Vorinostat] | -0.97 | 
2 | COC(=O)C1=C(C)NC(C)=C(C(=O)OC2CCCN(Cc3ccccc3)C2)C1c1cccc([N+](=O)[O-])c1 (configuration not stated) [Benidipine hydrochloride] | 0.37 | 
3 | CCNC(=O)CCC/C=C\C[C@@H]1[C@@H](/C=C/[C@@H](O)CCc2ccccc2)[C@H](O)C[C@@H]1O [Bimatoprost] | 0.11 | 
4 | C[C@]12C[C@H](O)[C@H]3[C@@H](CCC4=CC(=O)CC[C@@]43C)[C@@H]1CC[C@@H]2C(=O)CO [Corticosterone] | -0.07 | 
5 | CC1(C)O[C@@H]2C[C@H]3[C@@H]4CCC5=CC(=O)C=C[C@]5(C)[C@H]4[C@@H](O)C[C@]3(C)[C@]2(C(=O)CO)O1 [Desonide] | 0.53 | 
6 | CCN(CC)C(=S)SSC(=S)N(CC)CC [Disulfiram] | -0.12 | 
7 | C/C(=C(\CCOP(=O)(O)O)SC(=O)c1ccccc1)N(C=O)Cc1cnc(C)nc1N [Benfotiamine] | 0.65 | 
8 | COc1cc2/c(=N/c3ccc(Br)cc3F)nc[nH]c2cc1OCC1CCN(C)CC1 [Vandetanib] |  | -0.54
9 | Nc1c2c(nc3ccccc13)CCCC2 [Tacrine hydrochloride] | -0.1 | 
10 | CN1CC(O)C2=C/C(=N/NC(N)=O)C(=O)C=C21 (configuration not stated) [Carbazochrome] | 0.64 | 
11 | CCN(CC)CCOC(=O)c1ccc(N)cc1 [Procaine hydrochloride] | 0.89 | 
12 | CC[C@H](C)C(=O)O[C@H]1C[C@@H](C)C=C2C=C[C@H](C)[C@H](CC[C@@H]3C[C@@H](O)CC(=O)O3)[C@H]21 [Lovastatin] | -0.21 | 
13 | Cc1c(C)c2c(c(C)c1O)CCC(C)(C(=O)O)O2 (configuration not stated) [Trolox] | 0.82 | 
14 | CC(=O)N[C@@H](CS)C(=O)O [Acetylcysteine] | -0.13 | 
15 | CC(=O)O[C@H]1C[C@@]2(C)[C@@H](C[C@@H](O)[C@H]3[C@@]4(C)CC[C@@H](O)[C@@H](C)[C@@H]4CC[C@@]32C)/C1=C(\CCC=C(C)C)C(=O)O [Fusidic acid sodium salt] | -0.28 | 
16 | CN(C)CCn1nnnc1SCC1=C(C(=O)O)N2C(=O)[C@@H](NC(=O)Cc3csc(N)n3)[C@H]2SC1 [Cefotiam hydrochloride] | -0.15 | 
17 | CNC[C@H](O)[C@@H](O)[C@H](O)[C@H](O)CO [Meglumine] | 0.16 | 
18 | NCCCC(O)(P(=O)(O)O)P(=O)(O)O [Alendronate sodium] | -1.2 | 
19 | NC(=O)OCC(COC(N)=O)c1ccccc1 [Felbamate] | 0.09 | 
20 | Cc1ccnc(NS(=O)(=O)c2ccc(N)cc2)n1 [Sulfamerazine] | 0.66 | 
21 | N=C(N)NCc1cccc(I)c1 [Iobenguane sulfate] | -0.15 | 
22 | CC(C)n1c(/C=C/C(O)CC(O)CC(=O)O)c(-c2ccc(F)cc2)c2ccccc21 (configuration not stated) [Fluvastatin sodium salt] | -0.7 | 
23 | CC(C)(C)c1ccc(C(=O)CCCN2CCC(OC(c3ccccc3)c3ccccc3)CC2)cc1 [Ebastine] | 0.37 | 
24 | CCCCNc1cc(C(=O)O)cc(S(N)(=O)=O)c1Oc1ccccc1 [Bumetanide] | 2.04 | 

Row | SMILES | eye size Z-score | eye size Z-score (female)
25 | CNC(=O)c1c(I)c(C(=O)NCC(=O)Nc2c(I)c(C(=O)O)c(I)c(C(=O)NCCO)c2I)c(I)c(N(C)C(C)=O)c1I [Ioxaglic acid] | 0.32 | 
26 | CCOC(=O)[C@H](CCc1ccccc1)N[C@@H](C)C(=O)N(CC(=O)O)C1Cc2ccccc2C1 [Delapril Hydrochloride] |  | -0.99
27 | CC(=O)Oc1ccccc1C(=O)Oc1ccccc1C(=O)O [Acetylsalicylsalicylic acid] | 0.57 | 
28 | Cn1cc(C(=O)[C@@H]2CCc3[nH]cnc3C2)c2ccccc21 [Ramosetron hydrochloride] | 0.64 | 
29 | CC(C)NC[C@H](O)COc1cccc2ccccc12 [(S)-(-)-Propranolol hydrochloride] | 1.04 | 
30 | CC(=O)CCCCn1c(=O)c2c(ncn2C)n(C)c1=O [Pentoxifylline] | 0.24 | 
31 | CN1C(=O)OC(C)(C)C1=O [Trimethadione] | 0.02 | 
32 | CN(C/C=C/c1ccccc1)Cc1cccc2ccccc12 [Naftifine hydrochloride] | -0.18 | 
33 | OCCN1CCN(CCCN2c3ccccc3C=Cc3ccccc32)CC1 [Opipramol dihydrochloride] | -1.05 | 
34 | Nc1c(CC(=O)O)cccc1C(=O)c1ccc(Br)cc1 [Bromfenac] | -1.59 | 
35 | CCCC(CCC)C(=O)O[C@H]1C[C@H]2CC[C@@H](C1)[N+]2(C)C [Anisotropine Methylbromide] | 1.68 | 
36 | CN(C)CCCSC(=N)N [Dimaprit dihydrochloride] | 0.81 | 
37 | C[C@H](Cc1cc2c(c(C(N)=O)c1)N(CCCO)CC2)NCCOc1ccccc1OCC(F)(F)F [Silodosin] | 0.41 | 
38 | Cc1onc(-c2c(F)cccc2Cl)c1C(=O)N[C@@H]1C(=O)N2[C@@H]1SC(C)(C)[C@@H]2C(=O)O [Flucloxacillin sodium] | -0.73 | 
39 | O=C(NCCN1CCOCC1)c1ccc(Cl)cc1 [Moclobemide] | -2.09 | 
40 | NS(=O)(=O)c1cc(Cl)c(Cl)c(S(N)(=O)=O)c1 [Dichlorphenamide] | -0.16 | 
41 | CCCCCNC(=N)N/N=C/c1c[nH]c2ccc(OC)cc12 [Tegaserod maleate] | 0.24 | 
42 | CCN1CCCC(OC(=O)C(c2ccccc2)c2ccccc2)C1 (configuration not stated) [Piperidolate hydrochloride] | -0.71 | 
43 | C[C@@H]1C[C@H]2[C@@H]3C[C@H](F)C4=CC(=O)C=C[C@]4(C)[C@@]3(Cl)[C@@H](O)C[C@]2(C)[C@H]1C(=O)COC(=O)C(C)(C)C [Clocortolone pivalate] | -0.42 | 
44 | OC(c1cc(C(F)(F)F)nc2c(C(F)(F)F)cccc12)C1CCCCN1 (configuration not stated) [Mefloquine hydrochloride] | 1.32 | 
45 | CNCCCC12CCC(c3ccccc31)c1ccccc12 [Maprotiline hydrochloride] | 0.03 | 
46 | C[C@]12C=CC(=O)C=C1CC[C@H]1[C@@H]3C[C@@H](O)[C@](O)(C(=O)CO)[C@@]3(C)C[C@H](O)[C@@]12F [Triamcinolone] | 0.03 | 
47 | CC1(C)O[C@@H]2C[C@H]3[C@@H]4CCC5=CC(=O)CC[C@]5(C)[C@@]4(F)[C@@H](O)C[C@]3(C)[C@]2(C(=O)CCl)O1 [Halcinonide] | -0.2 | 
48 | CCN(CC)C(=O)/C(C#N)=C/c1cc(O)c(O)c([N+](=O)[O-])c1 [Entacapone] | -0.51 | 

Given tab-delimited: entries from further up.
Row	SMILES	eye size Z-score	eye size Z-score (female)
28	Cn1cc(C(=O)[C@@H]2CCc3[nH]cnc3C2)c2ccccc21 [Ramosetron hydrochloride]	0.64	
29	CC(C)NC[C@H](O)COc1cccc2ccccc12 [(S)-(-)-Propranolol hydrochloride]	1.04	
30	CC(=O)CCCCn1c(=O)c2c(ncn2C)n(C)c1=O [Pentoxifylline]	0.24	
31	CN1C(=O)OC(C)(C)C1=O [Trimethadione]	0.02	
32	CN(C/C=C/c1ccccc1)Cc1cccc2ccccc12 [Naftifine hydrochloride]	-0.18	
33	OCCN1CCN(CCCN2c3ccccc3C=Cc3ccccc32)CC1 [Opipramol dihydrochloride]	-1.05	

(cont.)

Row | SMILES | eye size Z-score | eye size Z-score (female)
49 | C[C@@H](O)[C@H]1C(=O)N2C(C(=O)O)=C(S[C@@H]3CN[C@H](C(=O)N(C)C)C3)[C@H](C)[C@H]12 [Meropenem] | 0.79 | 
50 | CC(=O)O[C@H]1C[C@@H]2CC[C@@H]3[C@H](CC[C@@]4(C)[C@H]3C[C@H]([N+]3(C)CCCCC3)[C@@H]4OC(C)=O)[C@@]2(C)C[C@@H]1N1CCCCC1 [Vecuronium bromide] | 0.48 | 
51 | NC(=O)c1cnccn1 [Pyrazinamide] | -1.22 | 
52 | O=C(CCNNC(=O)c1ccncc1)NCc1ccccc1 [Nialamide] | 0.16 | 
53 | N/C(=N\C(=O)c1nc(Cl)c(N)nc1N)NCc1ccccc1 [Benzamil hydrochloride] | 1.44 | 
54 | N#C/C(=C1/SCC(c2ccccc2Cl)S1)n1ccnc1 (configuration not stated) [Lanoconazole] | -1.15 | 
55 | Cc1nc2ccccn2c(=O)c1CCN1CCC(C(=O)c2ccc(F)cc2)CC1 [Pirenperone] |  | 0.01
56 | CSc1nc2cc(Cl)c(Oc3cccc(Cl)c3Cl)cc2[nH]1 [Triclabendazole] | -0.12 | 
57 | COc1cccc2c1C(=O)c1c(O)c3c(c(O)c1C2=O)C[C@@](O)(C(=O)CO)C[C@@H]3O[C@H]1C[C@H](N)[C@@H](O)[C@H](C)O1 [Epirubicin hydrochloride] | -0.1 | 
58 | CCCN(CCC)CCc1cccc2c1CC(=O)N2 [Ropinirole hydrochloride] | -1.19 | 
59 | CC(=O)O[C@H]1C(=O)[C@@]2(C)[C@H]([C@H](OC(=O)c3ccccc3)[C@]3(O)C[C@H](OC(=O)[C@H](O)[C@@H](NC(=O)c4ccccc4)c4ccccc4)C(C)=C1C3(C)C)[C@]1(OC(C)=O)CO[C@@H]1C[C@@H]2O [Paclitaxel] | 1.6 | 
60 | COc1c(-c2ccc3cc(NS(C)(=O)=O)ccc3c2)cc(-n2ccc(=O)[nH]c2=O)cc1C(C)(C)C [Dasabuvir] | -0.03 | 
61 | C/C=C(/C(=C/C)c1ccc(O)cc1)c1ccc(O)cc1 [Dienestrol] | 0.37 | 
62 | Cc1ncc([N+](=O)[O-])n1CC(C)O (configuration not stated) [Secnidazole] | 0.46 | 
63 | O=C(O)c1ccccc1OP(=O)(O)O [Fosfosal] | 0.52 | 
64 | COc1ccc2cc([C@H](C)C(=O)O)ccc2c1 [(S)-Naproxen] | 0.45 | 
65 | Nc1cc(N2CCCCC2)nc(N)[n+]1[O-] [Minoxidil] | 1.22 | 
66 | CC1(C)S[C@@H]2[C@H](NC(=O)[C@H](N)c3ccccc3)C(=O)N2[C@H]1C(=O)O [Ampicillin sodium salt] | 1.64 | 
67 | CC1(C)S[C@@H]2[C@H](NC(=O)[C@H](N)c3ccccc3)C(=O)N2[C@H]1C(=O)O [Ampicillin trihydrate] | 0.33 | 
68 | O=C(O)c1cc(=O)[nH]c(=O)[nH]1 [Orotic acid] | 1.3 | 
69 | CCC(NC(C)C)C(O)c1ccc(O)c2[nH]c(=O)ccc12 (configuration not stated) [Procaterol hydrochloride] | 0.35 | 
70 | Nc1ncnc2c1ncn2C1OC(COP(=O)(O)O)C(O)C1O (configuration not stated) [Adenosine 5'-monophosphate monohydrate] | 0.5 | 
71 | CCOC(=O)[C@H](CCc1ccccc1)N[C@@H](C)C(=O)N1C(=O)N(C)C[C@H]1C(=O)O [Imidapril hydrochloride] | -0.55 | 
72 | CN1CCCN(C(c2ccccc2)c2ccc(Cl)cc2)CC1 (configuration not stated) [Homochlorcyclizine dihydrochloride] | 0.13 | 
